Source: the supplement of paper PMC10849652
The list shows a part of the results.

Chains of the proteins cited; added tags and fusions are not shown. Lines headed by an entry give the natural chain unless they say otherwise; changes in a name come on top.
UniProt P30039: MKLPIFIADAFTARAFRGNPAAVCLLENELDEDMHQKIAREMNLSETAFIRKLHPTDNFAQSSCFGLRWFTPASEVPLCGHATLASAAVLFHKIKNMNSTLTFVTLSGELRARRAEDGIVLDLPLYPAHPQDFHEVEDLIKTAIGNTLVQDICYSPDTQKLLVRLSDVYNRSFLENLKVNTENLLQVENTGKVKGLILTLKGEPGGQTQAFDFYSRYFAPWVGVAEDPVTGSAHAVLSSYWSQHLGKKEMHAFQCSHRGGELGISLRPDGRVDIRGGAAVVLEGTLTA
UniProt Q9H300: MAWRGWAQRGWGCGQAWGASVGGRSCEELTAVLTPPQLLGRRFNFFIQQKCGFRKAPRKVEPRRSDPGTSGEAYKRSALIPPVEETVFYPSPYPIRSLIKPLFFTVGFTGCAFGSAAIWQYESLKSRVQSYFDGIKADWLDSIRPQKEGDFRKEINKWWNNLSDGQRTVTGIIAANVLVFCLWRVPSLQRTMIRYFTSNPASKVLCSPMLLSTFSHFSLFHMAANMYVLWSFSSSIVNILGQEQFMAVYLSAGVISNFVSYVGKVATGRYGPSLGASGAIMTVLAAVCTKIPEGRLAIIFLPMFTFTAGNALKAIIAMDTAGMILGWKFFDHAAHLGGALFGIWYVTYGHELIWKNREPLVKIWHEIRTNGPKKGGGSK
UniProt Q6L8Q7: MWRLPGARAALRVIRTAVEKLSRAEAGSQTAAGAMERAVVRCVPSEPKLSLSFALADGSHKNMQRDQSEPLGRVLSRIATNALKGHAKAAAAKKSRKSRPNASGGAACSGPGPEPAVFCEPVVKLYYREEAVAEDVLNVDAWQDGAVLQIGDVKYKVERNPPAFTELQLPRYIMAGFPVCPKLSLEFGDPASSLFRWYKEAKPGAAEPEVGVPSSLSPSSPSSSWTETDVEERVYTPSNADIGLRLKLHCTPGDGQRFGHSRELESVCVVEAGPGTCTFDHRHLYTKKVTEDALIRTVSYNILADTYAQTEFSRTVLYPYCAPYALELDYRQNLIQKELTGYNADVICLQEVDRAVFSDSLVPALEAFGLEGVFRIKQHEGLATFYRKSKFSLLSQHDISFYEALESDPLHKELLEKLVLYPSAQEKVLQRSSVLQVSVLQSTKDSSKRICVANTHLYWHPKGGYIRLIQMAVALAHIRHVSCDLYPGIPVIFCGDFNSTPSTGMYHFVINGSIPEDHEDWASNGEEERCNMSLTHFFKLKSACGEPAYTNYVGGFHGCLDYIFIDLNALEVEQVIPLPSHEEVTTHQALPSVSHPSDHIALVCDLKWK
UniProt O75914, whole entry, looked up: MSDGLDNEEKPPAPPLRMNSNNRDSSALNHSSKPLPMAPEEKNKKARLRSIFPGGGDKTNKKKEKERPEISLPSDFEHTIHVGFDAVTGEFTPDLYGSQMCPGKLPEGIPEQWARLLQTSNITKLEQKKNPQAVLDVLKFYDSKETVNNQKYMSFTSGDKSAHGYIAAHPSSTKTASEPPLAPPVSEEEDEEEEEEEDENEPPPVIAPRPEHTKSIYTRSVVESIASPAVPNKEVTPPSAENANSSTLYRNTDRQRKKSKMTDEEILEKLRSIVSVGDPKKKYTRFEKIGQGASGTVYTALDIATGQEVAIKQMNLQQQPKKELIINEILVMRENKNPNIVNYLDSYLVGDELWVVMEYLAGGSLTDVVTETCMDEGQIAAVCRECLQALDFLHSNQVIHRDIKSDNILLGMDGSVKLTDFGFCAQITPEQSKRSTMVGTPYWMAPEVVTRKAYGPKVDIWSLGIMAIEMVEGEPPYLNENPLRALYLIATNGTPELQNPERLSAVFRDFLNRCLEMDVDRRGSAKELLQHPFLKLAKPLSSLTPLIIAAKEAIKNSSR
UniProt Q7Z2X7: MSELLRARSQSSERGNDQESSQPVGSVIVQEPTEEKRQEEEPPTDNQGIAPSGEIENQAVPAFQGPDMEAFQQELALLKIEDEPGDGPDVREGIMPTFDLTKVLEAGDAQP
UniProt Q13153, whole entry, looked up: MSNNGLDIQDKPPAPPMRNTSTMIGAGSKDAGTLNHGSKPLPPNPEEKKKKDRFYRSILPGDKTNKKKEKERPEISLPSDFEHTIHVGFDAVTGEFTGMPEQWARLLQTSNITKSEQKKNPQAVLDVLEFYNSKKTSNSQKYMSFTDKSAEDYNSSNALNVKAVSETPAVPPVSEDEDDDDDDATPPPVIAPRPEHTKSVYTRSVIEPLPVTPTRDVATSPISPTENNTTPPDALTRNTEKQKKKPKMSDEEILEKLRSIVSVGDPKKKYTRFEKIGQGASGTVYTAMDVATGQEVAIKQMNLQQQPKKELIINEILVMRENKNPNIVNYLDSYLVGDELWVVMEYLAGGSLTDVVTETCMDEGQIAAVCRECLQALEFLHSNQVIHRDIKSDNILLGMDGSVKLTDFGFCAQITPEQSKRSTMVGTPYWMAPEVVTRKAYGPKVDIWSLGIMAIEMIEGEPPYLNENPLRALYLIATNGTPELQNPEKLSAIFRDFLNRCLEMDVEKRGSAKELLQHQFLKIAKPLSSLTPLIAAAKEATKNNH
UniProt Q9H813: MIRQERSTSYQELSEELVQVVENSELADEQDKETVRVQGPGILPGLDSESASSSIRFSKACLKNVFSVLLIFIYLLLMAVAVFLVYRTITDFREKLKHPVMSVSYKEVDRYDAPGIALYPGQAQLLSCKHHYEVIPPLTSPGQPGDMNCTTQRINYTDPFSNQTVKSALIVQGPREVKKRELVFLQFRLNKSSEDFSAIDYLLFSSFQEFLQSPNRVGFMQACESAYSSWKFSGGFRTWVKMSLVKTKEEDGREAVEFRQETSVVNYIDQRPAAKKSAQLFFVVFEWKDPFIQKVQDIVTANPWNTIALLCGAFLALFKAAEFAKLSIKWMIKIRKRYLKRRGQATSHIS
UniProt Q15004: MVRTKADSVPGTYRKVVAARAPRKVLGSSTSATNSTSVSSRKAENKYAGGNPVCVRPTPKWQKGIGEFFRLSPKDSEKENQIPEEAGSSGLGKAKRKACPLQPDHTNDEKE
UniProt Q8NBP7, whole entry, looked up: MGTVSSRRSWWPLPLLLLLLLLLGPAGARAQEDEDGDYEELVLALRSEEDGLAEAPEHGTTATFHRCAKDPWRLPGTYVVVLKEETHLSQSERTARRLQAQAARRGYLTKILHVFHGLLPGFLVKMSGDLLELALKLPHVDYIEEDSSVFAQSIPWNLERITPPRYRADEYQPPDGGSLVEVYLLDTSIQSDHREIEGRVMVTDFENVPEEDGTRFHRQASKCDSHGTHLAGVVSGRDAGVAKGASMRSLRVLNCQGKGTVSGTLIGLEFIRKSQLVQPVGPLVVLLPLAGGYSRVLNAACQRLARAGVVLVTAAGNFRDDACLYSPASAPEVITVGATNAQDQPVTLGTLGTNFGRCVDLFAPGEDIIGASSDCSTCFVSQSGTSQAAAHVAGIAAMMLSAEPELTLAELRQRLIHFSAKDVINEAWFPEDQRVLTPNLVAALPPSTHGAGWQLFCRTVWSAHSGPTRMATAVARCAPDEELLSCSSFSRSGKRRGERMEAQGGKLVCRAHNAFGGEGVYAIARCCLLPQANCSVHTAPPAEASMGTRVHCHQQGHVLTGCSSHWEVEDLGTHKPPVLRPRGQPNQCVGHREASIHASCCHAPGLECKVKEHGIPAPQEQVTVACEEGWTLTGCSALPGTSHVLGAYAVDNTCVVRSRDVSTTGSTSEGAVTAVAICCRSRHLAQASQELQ
UniProt Q6VY07, whole entry, looked up: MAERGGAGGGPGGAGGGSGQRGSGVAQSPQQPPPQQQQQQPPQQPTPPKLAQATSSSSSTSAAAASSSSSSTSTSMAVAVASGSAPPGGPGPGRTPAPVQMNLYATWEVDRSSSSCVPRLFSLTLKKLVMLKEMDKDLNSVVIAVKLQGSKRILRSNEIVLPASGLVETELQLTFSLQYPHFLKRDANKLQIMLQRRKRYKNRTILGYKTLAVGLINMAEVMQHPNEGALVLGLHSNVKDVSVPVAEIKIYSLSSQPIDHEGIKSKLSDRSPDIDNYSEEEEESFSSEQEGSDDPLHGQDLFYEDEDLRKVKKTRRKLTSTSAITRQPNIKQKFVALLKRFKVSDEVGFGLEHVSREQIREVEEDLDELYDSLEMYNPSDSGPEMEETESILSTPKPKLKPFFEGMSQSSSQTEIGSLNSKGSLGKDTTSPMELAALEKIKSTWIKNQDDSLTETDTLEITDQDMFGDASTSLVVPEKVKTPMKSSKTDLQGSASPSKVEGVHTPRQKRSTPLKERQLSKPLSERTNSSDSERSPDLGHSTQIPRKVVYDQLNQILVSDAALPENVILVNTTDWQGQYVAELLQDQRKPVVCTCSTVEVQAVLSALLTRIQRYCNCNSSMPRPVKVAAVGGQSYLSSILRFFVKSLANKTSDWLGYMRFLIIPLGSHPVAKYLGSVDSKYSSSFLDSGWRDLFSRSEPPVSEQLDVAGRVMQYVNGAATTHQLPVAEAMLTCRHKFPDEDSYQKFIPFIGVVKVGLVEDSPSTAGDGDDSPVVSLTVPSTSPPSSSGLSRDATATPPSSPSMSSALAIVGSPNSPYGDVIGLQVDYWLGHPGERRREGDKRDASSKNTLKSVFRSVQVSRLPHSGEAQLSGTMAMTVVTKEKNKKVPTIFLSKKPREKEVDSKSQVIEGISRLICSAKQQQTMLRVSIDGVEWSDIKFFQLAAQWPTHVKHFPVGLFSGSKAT
UniProt Q9BRP1: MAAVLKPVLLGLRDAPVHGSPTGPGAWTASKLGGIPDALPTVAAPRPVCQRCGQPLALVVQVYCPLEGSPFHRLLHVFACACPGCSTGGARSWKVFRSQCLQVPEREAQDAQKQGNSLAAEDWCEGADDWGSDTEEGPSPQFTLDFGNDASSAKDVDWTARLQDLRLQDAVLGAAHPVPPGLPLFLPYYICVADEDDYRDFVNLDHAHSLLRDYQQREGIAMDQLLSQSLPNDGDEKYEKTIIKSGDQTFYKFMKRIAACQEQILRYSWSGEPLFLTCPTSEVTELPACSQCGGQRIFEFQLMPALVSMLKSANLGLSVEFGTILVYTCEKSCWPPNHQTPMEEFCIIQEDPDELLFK
UniProt P30101, whole entry, looked up: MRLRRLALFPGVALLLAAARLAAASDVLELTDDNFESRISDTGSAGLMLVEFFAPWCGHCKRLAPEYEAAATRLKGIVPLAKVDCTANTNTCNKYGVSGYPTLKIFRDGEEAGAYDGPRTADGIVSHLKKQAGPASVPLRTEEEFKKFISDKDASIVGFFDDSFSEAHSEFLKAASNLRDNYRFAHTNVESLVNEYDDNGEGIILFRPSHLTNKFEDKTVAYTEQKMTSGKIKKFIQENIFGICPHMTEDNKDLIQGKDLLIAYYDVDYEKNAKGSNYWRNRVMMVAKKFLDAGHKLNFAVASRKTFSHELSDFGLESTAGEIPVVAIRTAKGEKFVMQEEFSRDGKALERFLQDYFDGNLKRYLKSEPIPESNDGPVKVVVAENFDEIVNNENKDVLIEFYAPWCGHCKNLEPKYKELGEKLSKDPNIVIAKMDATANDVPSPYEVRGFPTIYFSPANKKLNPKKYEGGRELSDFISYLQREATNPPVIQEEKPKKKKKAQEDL
UniProt Q9NVE7: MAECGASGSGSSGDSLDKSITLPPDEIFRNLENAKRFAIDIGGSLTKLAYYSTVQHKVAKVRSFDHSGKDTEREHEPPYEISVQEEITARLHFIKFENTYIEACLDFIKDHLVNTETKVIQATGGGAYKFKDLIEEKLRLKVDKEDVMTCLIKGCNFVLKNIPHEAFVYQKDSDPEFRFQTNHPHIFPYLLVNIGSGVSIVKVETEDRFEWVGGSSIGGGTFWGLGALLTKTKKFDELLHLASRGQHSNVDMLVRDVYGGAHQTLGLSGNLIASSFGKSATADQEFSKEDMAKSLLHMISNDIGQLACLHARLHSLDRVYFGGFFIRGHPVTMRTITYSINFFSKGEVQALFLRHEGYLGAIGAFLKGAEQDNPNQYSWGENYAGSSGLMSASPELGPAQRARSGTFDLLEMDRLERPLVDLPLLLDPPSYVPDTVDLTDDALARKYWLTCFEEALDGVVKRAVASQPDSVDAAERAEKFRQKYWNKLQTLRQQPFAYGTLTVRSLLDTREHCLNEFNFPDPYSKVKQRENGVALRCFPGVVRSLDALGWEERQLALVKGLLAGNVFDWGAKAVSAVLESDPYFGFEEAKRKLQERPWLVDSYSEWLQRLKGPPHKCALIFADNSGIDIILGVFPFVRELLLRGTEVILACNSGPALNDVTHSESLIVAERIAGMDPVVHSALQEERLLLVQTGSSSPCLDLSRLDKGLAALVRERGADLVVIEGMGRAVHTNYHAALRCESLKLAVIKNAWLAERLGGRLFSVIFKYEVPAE
UniProt Q13371: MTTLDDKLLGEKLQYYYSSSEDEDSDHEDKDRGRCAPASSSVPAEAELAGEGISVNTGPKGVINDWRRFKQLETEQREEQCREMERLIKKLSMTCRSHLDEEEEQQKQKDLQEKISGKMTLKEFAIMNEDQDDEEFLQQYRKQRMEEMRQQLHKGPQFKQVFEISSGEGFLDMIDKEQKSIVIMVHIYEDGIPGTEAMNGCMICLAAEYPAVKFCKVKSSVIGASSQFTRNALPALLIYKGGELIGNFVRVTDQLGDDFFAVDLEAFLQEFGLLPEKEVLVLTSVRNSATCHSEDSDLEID

Key:
Test in all cases: log2 fold change, soluble protein after heating vs DMSO (PISA); higher = thermal stabilisation; K562 cells, 10 uM, 30 min; active = over 0.2 and 3.5 SD of the protein, either way, in both replicates (recomputed)
[1] = compound: CS(=O)(=O)c1ccc(-c2cnc(N)c(C(=O)Nc3ccccc3)n2)cc1
Method in brief: (§1)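 Values are thermal stability changes relative to control samples and are taken from duplicates. They are stated as log2 fold changes. Before quantification by TMTpro 16plex LC-MS/MS with equalised channel sums, K562 cells at 2×10^6 cells/mL were treated with 10 μM compound for 30 min, heated in aliquots for 3 min across 48°C-58°C, pooled, extracted in PBS with 0.5% NP-40 at 4°C, and centrifuged at 21,000xg for 90 min to give the soluble supernatant.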

crizotinib = compound: C[C@@H](Oc1cc(-c2cnn(C3CCNCC3)c2)cnc1N)c1c(Cl)ccc(F)c1Cl [crizotinib]
Method in brief: as §1

[2] = compound: C[C@@H]1COCCN1C2=NC(=NC(=C2)C3(CC3)S(=O)(=O)C)C4=C5C=CNC5=CC=C4
Method in brief: as §1

[3] = compound: C[C@H](C1=CC=C(C=C1)C(=O)NC2=C3C=CNC3=NC=C2)N
Method in brief: as §1

duvelisib = compound: C[C@H](Nc1ncnc2nc[nH]c12)c1cc2cccc(Cl)c2c(=O)n1-c1ccccc1 [duvelisib]
Method in brief: as §1

tozasertib = compound: Cc1cc(Nc2cc(N3CCN(C)CC3)nc(Sc3ccc(NC(=O)C4CC4)cc3)n2)n[nH]1 [tozasertib]
Method in brief: as §1

[4] = compound: Cc1cc(SCc2sc(-c3ccc(C(F)(F)F)cc3)nc2C)ccc1OCC(=O)O
Method in brief: as §1

doramapimod = compound: Cc1ccc(-n2nc(C(C)(C)C)cc2NC(=O)Nc2ccc(OCCN3CCOCC3)c3ccccc23)cc1 [doramapimod]
Method in brief: as §1

ispinesib = compound: Cc1ccc(C(=O)N(CCCN)[C@@H](c2nc3cc(Cl)ccc3c(=O)n2Cc2ccccc2)C(C)C)cc1 [ispinesib]
Method in brief: as §1

bafetinib = compound: Cc1ccc(NC(=O)c2ccc(CN3CC[C@H](N(C)C)C3)c(C(F)(F)F)c2)cc1Nc1nccc(-c2cncnc2)n1 [bafetinib]
Method in brief: as §1

nilotinib = compound: Cc1cn(-c2cc(NC(=O)c3ccc(C)c(Nc4nccc(-c5cccnc5)n4)c3)cc(C(F)(F)F)c2)cn1 [nilotinib]
Method in brief: as §1

[5] = compound: Cc1nc(Nc2n[nH]c3c2CN(C(=O)N[C@H](CN(C)C)c2ccccc2)C3(C)C)c2sccc2n1
Method in brief: as §1

dasatinib = compound: Cc1nc(Nc2ncc(C(=O)Nc3c(C)cccc3Cl)s2)cc(N2CCN(CCO)CC2)n1 [dasatinib]
Method in brief: as §1

[6] = compound: Cc1ncc(-c2ccnc(Nc3ccc(S(C)(=O)=O)cc3)n2)n1C(C)C
Method in brief: as §1

[7] = compound: Cn1cc(-c2ccc3c(c2)CCN3C(=O)Cc2cccc(C(F)(F)F)c2)c2c(N)ncnc21
Method in brief: as §1

[8] = compound: Cn1cc(-c2ccc3nnc(C(F)(F)c4ccc5ncccc5c4)n3n2)cn1
Method in brief: as §1

tipifarnib = compound: Cn1cncc1[C@@](N)(c1ccc(Cl)cc1)c1ccc2c(c1)c(-c1cccc(Cl)c1)cc(=O)n2C [tipifarnib]
Method in brief: as §1

mubritinib = compound: FC(F)(F)c1ccc(/C=C/c2nc(COc3ccc(CCCCn4ccnn4)cc3)co2)cc1 [mubritinib]
Method in brief: as §1

gandotinib = compound: Cc1cc(Nc2cc(CN3CCOCC3)c3nc(C)c(Cc4ccc(Cl)cc4F)n3n2)n[nH]1 [gandotinib]
Method in brief: as §1

[9] = compound: Cc1cccc(CC(=O)N2CCc3c2ccc(-c2cn(C)c4ncnc(N)c24)c3F)n1
Method in brief: as §1

Measured: log2 fold change

PBLD (UniProt P30039)
inactive: [1] -0.002 | crizotinib -0.184 | [2] 0 | [3] -0.029 | duvelisib 0.109 | tozasertib -0.034 | [4] 0.018 | doramapimod 0.335 | ispinesib 0.046 | bafetinib -0.013 | nilotinib -0.005 | [5] 0.009 | dasatinib -0.047 | [6] 0.052 | [7] 0.065 | [8] -0.073 | tipifarnib 0.016 | mubritinib -0.002

PARL (UniProt Q9H300)
inactive: [1] -0.004 | crizotinib -0.036 | [2] 0.186 | [3] -0.011 | gandotinib 0.025 | [4] -0.035 | doramapimod -0.009 | ispinesib -0.193 | bafetinib -0.169 | [9] 0.061 | nilotinib 0.047 | [5] -0.011 | dasatinib 0.015 | [6] 0.018 | [7] 0.017 | [8] 0.051 | tipifarnib -0.023 | mubritinib 0.021

PDE12 (UniProt Q6L8Q7)
inactive: [1] 0.047 | crizotinib 0.032 | [2] 0.088 | [3] -0.133 | gandotinib 0.027 | [4] 0 | doramapimod -0.027 | ispinesib 0.065 | bafetinib -0.013 | [9] 0.002 | nilotinib -0.004 | [5] 0.017 | dasatinib -0.061 | [6] -0.006 | [7] 0.067 | [8] 0.066 | tipifarnib -0.078 | mubritinib 0.066

PC (UniProt P11498)
inactive: [1] 0.033 | crizotinib 0.103 | [2] 0.199 | [3] 0.167 | gandotinib -0.143 | [4] 0.024 | doramapimod 0.008 | ispinesib 0.186 | bafetinib 0.096 | [9] 0.102 | nilotinib -0.014 | [5] 0.121 | dasatinib 0.005 | [6] -0.007 | [7] 0.047 | [8] 0.074 | tipifarnib -0.097 | mubritinib 0.024

PAK3 isoform 3 (UniProt O75914)
inactive: [1] 0.013 | crizotinib 0.044 | [2] -0.017 | [3] -0.085 | duvelisib 0.021 | gandotinib 0.051 | [4] -0.028 | doramapimod 0.002 | ispinesib 0.124 | bafetinib 0.005 | [9] 0.043 | nilotinib 0.026 | [5] -0.012 | dasatinib 0.008 | [6] 0.019 | [7] 0.011 | [8] -0.013 | tipifarnib -0.028 | mubritinib 0.039

PAGE2 (UniProt Q7Z2X7)
inactive: [1] -0.004 | crizotinib 0.257 | [2] 0.218 | [3] -0.054 | duvelisib 0.255 | gandotinib 0.128 | tozasertib -0.047 | [4] -0.029 | doramapimod 0.054 | bafetinib -0.046 | [9] -0.047 | nilotinib -0.02 | [5] -0.05 | dasatinib -0.023 | [6] 0.009 | [7] 0.122 | tipifarnib 0.161 | mubritinib 0.034

PAK1 isoform 2 (UniProt Q13153)
active: [3] -0.308
inactive: [1] 0.009 | crizotinib 0.054 | [2] 0.063 | gandotinib -0.098 | [4] 0.056 | doramapimod -0.155 | ispinesib 0.084 | bafetinib -0.017 | [9] 0.04 | nilotinib 0.03 | [5] 0.036 | dasatinib -0.025 | [6] -0.027 | [7] 0.041 | [8] 0.035 | tipifarnib -0.004 | mubritinib 0.015

PACC1 (UniProt Q9H813)
inactive: [1] 0.126 | crizotinib -0.078 | [2] 0.039 | [3] -0.171 | duvelisib 0.07 | tozasertib 0 | [4] -0.124 | doramapimod -0.001 | bafetinib -0.057 | nilotinib 0.027 | [5] 0.062 | dasatinib 0.04 | [6] 0.105 | [7] 0.018 | tipifarnib 0.128 | mubritinib 0.045

PCLAF (UniProt Q15004)
inactive: [1] -0.175 | crizotinib 0.027 | [2] -0.19 | [3] 0.052 | gandotinib -0.07 | [4] -0.097 | doramapimod 0.022 | ispinesib 0.079 | bafetinib -0.015 | [9] -0.1 | nilotinib -0.027 | [5] 0.105 | dasatinib 0.065 | [6] -0.081 | [7] -0.112 | [8] -0.069 | tipifarnib -0.019 | mubritinib -0.095

PCSK9 (UniProt Q8NBP7)
inactive: [1] 0.081 | crizotinib 0.015 | [2] -0.01 | [3] 0.038 | gandotinib -0.01 | tozasertib -0.093 | doramapimod 0.041 | ispinesib 0.023 | bafetinib 0.057 | [9] -0.057 | nilotinib 0.069 | [5] -0.067 | [6] -0.01 | [7] 0.011 | [8] -0.023 | tipifarnib 0.061 | mubritinib -0.077

PACS1 (UniProt Q6VY07)
inactive: [1] 0.013 | crizotinib -0.053 | [2] 0.051 | [3] -0.015 | gandotinib -0.018 | [4] -0.014 | doramapimod 0.06 | ispinesib 0.042 | bafetinib 0.008 | [9] 0.02 | nilotinib 0.051 | [5] 0.038 | dasatinib 0.018 | [6] -0.018 | [7] -0.006 | [8] -0.098 | tipifarnib -0.002 | mubritinib -0.021

PDS5B (UniProt Q9NTI5)
inactive: [1] 0.03 | crizotinib -0.229 | [2] 0.222 | [3] 0.041 | gandotinib -0.149 | [4] 0.208 | doramapimod -0.074 | ispinesib -0.225 | bafetinib 0.041 | [9] -0.139 | nilotinib -0.314 | [5] 0.04 | dasatinib -0.244 | [6] -0.031 | [7] 0.038 | [8] 0.147 | tipifarnib 0.054 | mubritinib 0.127
active: tozasertib -0.604

PEX11B (UniProt O96011)
inactive: [1] -0.042 | crizotinib 0.02 | [2] 0.148 | [3] -0.012 | gandotinib -0.073 | [4] 0.014 | doramapimod 0.002 | ispinesib 0.07 | bafetinib -0.022 | [9] 0.081 | nilotinib 0.04 | [5] 0.041 | dasatinib -0.071 | [6] -0.043 | [7] 0.049 | [8] 0.01 | tipifarnib -0.063 | mubritinib 0.058

PDCD2L (UniProt Q9BRP1)
inactive: [1] -0.059 | crizotinib -0.048 | [2] -0.083 | [3] 0.068 | gandotinib 0.225 | [4] 0.097 | doramapimod -0.058 | ispinesib 0.062 | bafetinib 0.026 | [9] 0.077 | nilotinib -0.137 | [5] 0.035 | dasatinib -0.122 | [6] -0.062 | [7] -0.022 | [8] 0.015 | tipifarnib -0.13 | mubritinib 0.018

PDIA3 (UniProt P30101)
inactive: [1] -0.005 | crizotinib 0.005 | [2] -0.124 | [3] 0.138 | duvelisib -0.101 | gandotinib -0.032 | tozasertib 0.049 | [4] 0.022 | doramapimod 0.084 | ispinesib 0 | bafetinib 0.1 | [9] 0.025 | nilotinib 0.017 | [5] 0.047 | dasatinib 0.029 | [6] -0.033 | [7] -0.051 | [8] -0.019 | tipifarnib 0.119 | mubritinib -0.123

PDCD2 (UniProt Q16342)
inactive: [1] 0.048 | crizotinib -0.028 | [2] -0.152 | [3] 0.322 | duvelisib 0.033 | tozasertib 0.107 | [4] 0.179 | doramapimod 0.183 | bafetinib 0.095 | dasatinib -0.111 | [7] -0.311 | mubritinib -0.331

PANK4 (UniProt Q9NVE7)
inactive: [1] 0.024 | crizotinib 0.089 | [2] 0.073 | [3] -0.032 | duvelisib 0.079 | gandotinib 0.095 | tozasertib -0.017 | [4] 0.037 | doramapimod -0.049 | ispinesib 0.151 | bafetinib -0.032 | [9] 0.019 | nilotinib -0.051 | [5] 0.113 | dasatinib -0.086 | [6] 0.072 | [7] 0.025 | [8] 0.026 | tipifarnib 0.109 | mubritinib -0.08

Reprinted from the listing (2 entries):
PEX11B (UniProt O96011)
inactive: [1] -0.042 | crizotinib 0.02 | [2] 0.148 | [3] -0.012 | gandotinib -0.073 | [4] 0.014 | doramapimod 0.002 | ispinesib 0.07 | bafetinib -0.022 | [9] 0.081 | nilotinib 0.04 | [5] 0.041 | dasatinib -0.071 | [6] -0.043 | [7] 0.049 | [8] 0.01 | tipifarnib -0.063 | mubritinib 0.058

PDCD2L (UniProt Q9BRP1)
inactive: [1] -0.059 | crizotinib -0.048 | [2] -0.083 | [3] 0.068 | gandotinib 0.225 | [4] 0.097 | doramapimod -0.058 | ispinesib 0.062 | bafetinib 0.026 | [9] 0.077 | nilotinib -0.137 | [5] 0.035 | dasatinib -0.122 | [6] -0.062 | [7] -0.022 | [8] 0.015 | tipifarnib -0.13 | mubritinib 0.018

Remaining list, next part.

PDCL (UniProt Q13371)
inactive: [1] 0.061 | crizotinib 0.02 | [2] -0.193 | [3] 0.003 | duvelisib 0.071 | gandotinib -0.038 | tozasertib 0.027 | [4] 0.018 | doramapimod -0.043 | ispinesib -0.01 | bafetinib -0.026 | [9] -0.016 | nilotinib -0.02 | [5] -0.003 | dasatinib 0.003 | [6] -0.001 | [7] 0.022 | [8] -0.011 | tipifarnib -0.025 | mubritinib 0.146
